PubChem BioAssay AID1259424, University of Nebraska Medical Center, 2018

Aim: 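Find knockdowns that reproduce the expression shifts seen after KSR1 loss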 (primary screen)
Cell system: human HCT116 colon cancer cells
Knock-down reagent: siRNA pool against human genes, 50 nM
Measured: 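Log2 levels of six mRNAs (branched-DNA multiplex), adjusted by two reference genes and the non-targeting median, then scored against the average KSR1 knockdown pattern as Pearson r and euclidean distance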
Direction: mean correlation with KSR1 profile and KSR1 correlation: higher = expression change more like KSR1 knockdown; mean distance from KSR1 profile: higher = expression change less like KSR1 knockdown
Here is one part, drawn at random, of about 14,000 reagents tested. 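Higher correlation or smaller distance means closer resemblance to KSR1 loss; control wells, including KSR1 knockdowns, recur on many plates.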 Reagent sequences are not shown. Not stated in the record: the time to read-out.

gene symbol	PubChem SID	mean correlation with KSR1 profile	mean distance from KSR1 profile	KSR1 correlation, replicate 1	KSR1 correlation, replicate 2	KSR1 correlation, replicate 3
RPAP3	SID364002907	0.474	4.04	0.488	0.594	0.299
PPP2CB	SID363995160	0.216	2.01	0.447	0.359	-0.211
CHD1L	SID364005601	-0.42	1.36	-0.237	-0.394	-0.403
EMC7	SID364001513	0.315	1.6	0.479	-0.511	0.219
B4GALT1	SID363992755	-0.136	2.94	-0.34	0.146	-0.0595
RBM27	SID364005375	-0.646	3.3	-0.571	-0.823	-0.587
OLR1	SID363993714	0.202	1.04	0.322	-0.0675	0.397
MAIP1	SID364002842	0.0296	2.19	0.188	-0.0256	0.0128
JKAMP	SID364000130	-0.64	2.53	-0.538	-0.532	-0.587
SLC12A3	SID363991671	-0.0177	1.68	-0.0833	-0.085	0.064
PRR12	SID364005181	-0.664	1.89	-0.844	-0.588	-0.368
ID4	SID363992803	0.226	1.61	0.528	0.574	-0.476
TAF15	SID363994585	0.606	0.97	0.454	0.402	0.695
IFI16	SID363996431	-0.0687	1.94	0.0371	-0.0208	0.0175
SSRP1	SID363994286	0.377	2.12	0.297	0.464	0.303
TOR4A	SID364000473	-0.625	3.09	-0.735	-0.586	-0.563
CNTNAP2	SID363998606	0.13	1.21	0.262	-0.0399	0.178
SCN1B	SID363992334	0.635	1.62	0.698	0.765	0.00458
HLA-DRA	SID364001410	0.337	1.76	0.186	-0.0542	0.474
LAMP5	SID363998183	-0.347	1.48	-0.26	-0.469	-0.432
SBNO1	SID364000854	-0.491	1.93	-0.645	-0.511	-0.563
IRF6	SID363996977	0.762	0.765	0.71	0.505	0.683
LRRFIP2	SID363997131	0.364	2.37	0.39	0.356	0.427
NPTX1	SID363993694	-0.366	2	-0.372	-0.489	-0.323
KRT6A	SID363996454	-0.0533	1.68	0.0234	-0.191	-0.151
KRT6A	SID364004474	-0.0999	1.97	-0.181	-0.279	0.0811
STXBP6	SID363998635	0.371	1.73	0.155	0.0195	0.0561
RPL3	SID363992251	0.0415	1.88	-0.0679	-0.316	0.156
UTP11	SID363999814	0.634	1.42	0.534	0.564	0.68
A4GNT	SID363999919	0.106	1.44	0.221	0.255	0.108
DMXL1	SID363996410	0.819	1.18	0.811	0.86	0.82
SRSF9	SID363994833	-0.526	1.51	-0.411	-0.701	-0.706
CACNG6	SID364004676	0.107	2.95	0.343	0.227	0.18
NSD1	SID364002442	-0.131	1.52	-0.0171	-0.281	-0.145
